6 molecules from article PMC4459967 can be followed below.

Holding throughout (assay): affinity purification with mass spectrometry; anti-Myc (MMS19-Myc) or anti-Flag (CIA1-Flag, CIA2-Flag) antibody-conjugated beads on extracts of flowers or seedlings of transgenic plants; CIA1-Flag and CIA2-Flag in the wild-type background, also done in the mms19 mutant background; lysis buffer 50 mM Tris-HCl pH 7.6, 150 mM NaCl, 5 mM MgCl2, 10% glycerol, 0.1% NP-40, 0.5 mM DTT; 4 °C; wild-type plants as control

The target in test [1] is T1, CIA2-Flag (Arabidopsis thaliana) (UniProt Q9C9G6).
T1 sequence: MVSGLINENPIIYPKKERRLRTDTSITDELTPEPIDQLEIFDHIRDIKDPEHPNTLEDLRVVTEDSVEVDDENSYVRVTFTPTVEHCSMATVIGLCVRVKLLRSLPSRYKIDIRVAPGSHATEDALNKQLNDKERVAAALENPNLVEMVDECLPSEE

The target in test [2] is T2, MMS19-Myc (Arabidopsis thaliana) (UniProt Q0WVF8).
T2 sequence: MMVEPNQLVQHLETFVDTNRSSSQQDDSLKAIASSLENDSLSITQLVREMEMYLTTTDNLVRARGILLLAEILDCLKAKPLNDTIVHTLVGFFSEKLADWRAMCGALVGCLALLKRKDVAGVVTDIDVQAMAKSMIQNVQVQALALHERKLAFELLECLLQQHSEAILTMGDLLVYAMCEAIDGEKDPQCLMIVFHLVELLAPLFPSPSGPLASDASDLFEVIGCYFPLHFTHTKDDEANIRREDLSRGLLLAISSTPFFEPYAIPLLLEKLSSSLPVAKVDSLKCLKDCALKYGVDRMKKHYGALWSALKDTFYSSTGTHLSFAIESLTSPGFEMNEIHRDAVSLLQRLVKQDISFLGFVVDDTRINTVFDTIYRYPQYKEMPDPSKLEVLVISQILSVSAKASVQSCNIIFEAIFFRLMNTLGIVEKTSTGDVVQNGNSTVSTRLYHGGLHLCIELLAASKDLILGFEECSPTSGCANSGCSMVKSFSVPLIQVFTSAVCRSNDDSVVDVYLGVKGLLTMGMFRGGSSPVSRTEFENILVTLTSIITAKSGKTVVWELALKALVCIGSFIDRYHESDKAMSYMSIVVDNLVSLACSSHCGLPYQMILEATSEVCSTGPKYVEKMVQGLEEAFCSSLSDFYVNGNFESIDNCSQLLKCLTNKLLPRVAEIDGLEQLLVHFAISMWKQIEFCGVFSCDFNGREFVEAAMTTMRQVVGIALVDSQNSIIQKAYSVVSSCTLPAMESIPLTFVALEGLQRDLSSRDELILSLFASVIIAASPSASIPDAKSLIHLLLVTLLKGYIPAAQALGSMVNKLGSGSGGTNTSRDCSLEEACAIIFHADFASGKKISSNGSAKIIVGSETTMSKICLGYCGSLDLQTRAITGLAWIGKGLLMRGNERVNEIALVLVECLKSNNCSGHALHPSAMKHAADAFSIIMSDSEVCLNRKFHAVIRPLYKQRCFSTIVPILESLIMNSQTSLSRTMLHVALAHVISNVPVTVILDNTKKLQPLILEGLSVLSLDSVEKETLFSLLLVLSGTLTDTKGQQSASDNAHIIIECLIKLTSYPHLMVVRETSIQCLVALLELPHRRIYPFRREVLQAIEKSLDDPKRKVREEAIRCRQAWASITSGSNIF

In test [3] the target is T3, CIA1-Flag (Arabidopsis thaliana) (UniProt O80990).
T3 sequence: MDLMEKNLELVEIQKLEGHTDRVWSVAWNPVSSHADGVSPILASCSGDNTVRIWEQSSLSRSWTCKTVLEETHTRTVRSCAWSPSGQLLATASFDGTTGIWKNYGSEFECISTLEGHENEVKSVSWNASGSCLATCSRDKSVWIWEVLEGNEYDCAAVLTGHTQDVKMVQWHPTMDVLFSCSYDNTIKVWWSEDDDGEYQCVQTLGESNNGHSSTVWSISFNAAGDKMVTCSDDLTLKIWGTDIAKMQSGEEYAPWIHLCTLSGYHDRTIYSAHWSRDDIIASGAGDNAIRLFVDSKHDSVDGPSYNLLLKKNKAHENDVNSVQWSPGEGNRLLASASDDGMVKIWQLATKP

These are yes or no findings as the source states them, for the method shown. Binding seen in cells or lysates may run through a third protein. These calls come from enrichment with a bait or labelling near it, and not all partners need be listed. Sequences can lack the tags named with a protein.

B1: NAR1 (protein, UniProt Q94CL6 1-474)
chain: MSEKFSPTLRLGDLNDFIAPSQACVISLKDSKPIVKKSDRPQVVIAPKQQLEPVKISLKDCLACSGCITSAETVMLEKQSLDEFLSALSKGKDVVVSVSPQSRASLAVHYDISPLQVFKKLTTFLKSLGVKAVFDTSCSRDLVLIESCNEFVSRYKQANSDDGENSQSPLPVLSSACPGWICYAEKQLGSYVLPYVSSVKSPQQAIGAAIKHHLCQALGLRLHEVYHVTVMPCYDKKLEAARDDFVFDDGTQDNGDLKLTEVDSVLTTGEIMDLIKLKGVDFKDLEESPLDRVLTNVTEEGDLYGVAGSSGGYAETIFRHAAKALFGQTIEGPLEFKTLRNSDFREVTLQLEGKTVLKFALCYGFQNLQNIVRRVKTRKCDYQYVEIMACPAGCLNGGGQIKPKTGQSQKELIHSLEATYMNDTTLNTDPYQNPTAKRLFEEWLKEPGSNEAKKYLHTQYHPVVKSVTSQLNNW
Take B1: the binding entry in test [1] and in test [2] was “binds” each time.

B2: CIA1 (protein, UniProt O80990 1-352)
chain: MDLMEKNLELVEIQKLEGHTDRVWSVAWNPVSSHADGVSPILASCSGDNTVRIWEQSSLSRSWTCKTVLEETHTRTVRSCAWSPSGQLLATASFDGTTGIWKNYGSEFECISTLEGHENEVKSVSWNASGSCLATCSRDKSVWIWEVLEGNEYDCAAVLTGHTQDVKMVQWHPTMDVLFSCSYDNTIKVWWSEDDDGEYQCVQTLGESNNGHSSTVWSISFNAAGDKMVTCSDDLTLKIWGTDIAKMQSGEEYAPWIHLCTLSGYHDRTIYSAHWSRDDIIASGAGDNAIRLFVDSKHDSVDGPSYNLLLKKNKAHENDVNSVQWSPGEGNRLLASASDDGMVKIWQLATKP
For the molecule B2, the binding entry in test [2] is “binds”.

B3: CIA2/AE7 (protein, UniProt Q9C9G6 1-157)
chain: MVSGLINENPIIYPKKERRLRTDTSITDELTPEPIDQLEIFDHIRDIKDPEHPNTLEDLRVVTEDSVEVDDENSYVRVTFTPTVEHCSMATVIGLCVRVKLLRSLPSRYKIDIRVAPGSHATEDALNKQLNDKERVAAALENPNLVEMVDECLPSEE
For the molecule B3, the binding result in test [2] is listed as “binds”.

B4: MMS19 (protein, UniProt Q0WVF8 1-1134)
chain: MMVEPNQLVQHLETFVDTNRSSSQQDDSLKAIASSLENDSLSITQLVREMEMYLTTTDNLVRARGILLLAEILDCLKAKPLNDTIVHTLVGFFSEKLADWRAMCGALVGCLALLKRKDVAGVVTDIDVQAMAKSMIQNVQVQALALHERKLAFELLECLLQQHSEAILTMGDLLVYAMCEAIDGEKDPQCLMIVFHLVELLAPLFPSPSGPLASDASDLFEVIGCYFPLHFTHTKDDEANIRREDLSRGLLLAISSTPFFEPYAIPLLLEKLSSSLPVAKVDSLKCLKDCALKYGVDRMKKHYGALWSALKDTFYSSTGTHLSFAIESLTSPGFEMNEIHRDAVSLLQRLVKQDISFLGFVVDDTRINTVFDTIYRYPQYKEMPDPSKLEVLVISQILSVSAKASVQSCNIIFEAIFFRLMNTLGIVEKTSTGDVVQNGNSTVSTRLYHGGLHLCIELLAASKDLILGFEECSPTSGCANSGCSMVKSFSVPLIQVFTSAVCRSNDDSVVDVYLGVKGLLTMGMFRGGSSPVSRTEFENILVTLTSIITAKSGKTVVWELALKALVCIGSFIDRYHESDKAMSYMSIVVDNLVSLACSSHCGLPYQMILEATSEVCSTGPKYVEKMVQGLEEAFCSSLSDFYVNGNFESIDNCSQLLKCLTNKLLPRVAEIDGLEQLLVHFAISMWKQIEFCGVFSCDFNGREFVEAAMTTMRQVVGIALVDSQNSIIQKAYSVVSSCTLPAMESIPLTFVALEGLQRDLSSRDELILSLFASVIIAASPSASIPDAKSLIHLLLVTLLKGYIPAAQALGSMVNKLGSGSGGTNTSRDCSLEEACAIIFHADFASGKKISSNGSAKIIVGSETTMSKICLGYCGSLDLQTRAITGLAWIGKGLLMRGNERVNEIALVLVECLKSNNCSGHALHPSAMKHAADAFSIIMSDSEVCLNRKFHAVIRPLYKQRCFSTIVPILESLIMNSQTSLSRTMLHVALAHVISNVPVTVILDNTKKLQPLILEGLSVLSLDSVEKETLFSLLLVLSGTLTDTKGQQSASDNAHIIIECLIKLTSYPHLMVVRETSIQCLVALLELPHRRIYPFRREVLQAIEKSLDDPKRKVREEAIRCRQAWASITSGSNIF
With B4, the binding result in test [1] and in test [3] was “binds” in each case.

B5: AT3G50845 (protein, UniProt A8MR89 1-154)
chain: MTLGLINANPVVQAKKEGLVRREDQYRDDGVDPLEIYDYVRDIRDPEHPYTLEQLRVVSEESVTVDDKLDRILITFTPTIQHCSMANIIGLCLRAKLKECLQLHYKVDIRVSPGSHADEVSVNKQLNDKERVVAALENPNLRQLVDECIYSDEI
On to B5, for which the binding result in test [3] is listed as “binds”.

B6: AT5G63960, catalytic subunit of DNA polymerase δ (protein, UniProt Q9LVN7 1-1095)
chain: MNRSGISKKRPPPSNTPPPAGKHRATGDSTPSPAIGTLDDEFMMEEDVFLDETLLYGDEDEESLILRDIEERESRSSAWARPPLSPAYLSNSQSIIFQQLEIDSIIAESHKELLPGSSGQAPIIRMFGVTREGNSVCCFVHGFEPYFYIACPPGMGPDDISNFHQSLEGRMRESNKNAKVPKFVKRIEMVQKRSIMYYQQQKSQTFLKITVALPTMVASCRGILDRGLQIDGLGMKSFQTYESNILFVLRFMVDCDIVGGNWIEVPTGKYKKNARTLSYCQLEFHCLYSDLISHAAEGEYSKMAPFRVLSFDIECAGRKGHFPEAKHDPVIQIANLVTLQGEDHPFVRNVMTLKSCAPIVGVDVMSFETEREVLLAWRDLIRDVDPDIIIGYNICKFDLPYLIERAATLGIEEFPLLGRVKNSRVRVRDSTFSSRQQGIRESKETTIEGRFQFDLIQAIHRDHKLSSYSLNSVSAHFLSEQKEDVHHSIITDLQNGNAETRRRLAVYCLKDAYLPQRLLDKLMFIYNYVEMARVTGVPISFLLARGQSIKVLSQLLRKGKQKNLVLPNAKQSGSEQGTYEGATVLEARTGFYEKPIATLDFASLYPSIMMAYNLCYCTLVTPEDVRKLNLPPEHVTKTPSGETFVKQTLQKGILPEILEELLTARKRAKADLKEAKDPLEKAVLDGRQLALKISANSVYGFTGATVGQLPCLEISSSVTSYGRQMIEQTKKLVEDKFTTLGGYQYNAEVIYGDTDSVMVQFGVSDVEAAMTLGREAAEHISGTFIKPIKLEFEKVYFPYLLINKKRYAGLLWTNPQQFDKMDTKGIETVRRDNCLLVKNLVTESLNKILIDRDVPGAAENVKKTISDLLMNRIDLSLLVITKGLTKTGDDYEVKSAHGELAERMRKRDAATAPNVGDRVPYVIIKAAKGAKAYERSEDPIYVLQNNIPIDPNYYLENQISKPLLRIFEPVLKNASKELLHGSHTRSISITTPSNSGIMKFAKKQLSCVGCKVPISNGTLCASCKGREAELYCKNVSQVAELEEVFGRLWTQCQECQGSLHQDVLCTSRDCPIFYRRMKAQKDMAVARQQLDRWSF
In the case of B6, in test [2], the binding result was “binds”.
